In the supplement of paper PMC10331698:
± gives the standard deviation of the averaged measurements. Most entries show no effect beyond the scatter of the controls.

Legend:
Assay in all cases: level (log10 ratio to DMSO vehicle control); higher = higher biomarker level / cell amount than vehicle control
[1] = compound: C=C(C)C(=O)OCCC(F)(F)C(F)(F)C(F)(F)C(F)(F)C(F)(F)C(F)(F)F [6:2 Fluorotelomer methacrylate] (in DMSO); conditions: 2200 nM
Protocol: (§1)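 BioMAP Diversity Plus panel of 12 human primary cell co-culture systems (3C, 4H, LPS, SAg, BT, BF4T, BE3C, CASM3C, HDF3CGF, KF3CT, MyoF, Mphg). Compounds were added 1 h before stimulation and left for 24 h (MyoF 48 h; BT 72 h for soluble read-outs or 6 d for IgG). Biomarkers were read by ELISA, cytotoxicity by SRB, PBMC viability and proliferation by Alamar Blue. Each well value was divided by the mean of 8 DMSO control wells on the same plate and log10 transformed; duplicate blinded samples were tested at 4 concentrations.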

[2] = compound: CNS(=O)(=O)C(F)(F)C(F)(F)C(F)(F)C(F)(F)C(F)(F)C(F)(F)C(F)(F)C(F)(F)F [N-Methylperfluorooctanesulfonamide] (in DMSO); conditions: 2200 nM
Protocol: as §1

[3] = compound: FC(F)(F)C(F)(F)C(F)(F)C(F)(F)CCI [1H,1H,2H,2H-Perfluorohexyl iodide] (in DMSO); conditions: 2200 nM
Protocol: as §1

[4] = compound: FC(F)(F)C(F)(F)CNCC(F)(F)C(F)(F)F [Bis(1H,1H-perfluoropropyl)amine] (in DMSO); conditions: 2200 nM
Protocol: as §1

[5] = compound: FC(F)(F)COC(OCC(F)(F)F)OCC(F)(F)F [tris(Trifluoroethoxy)methane] (in DMSO); conditions: 2200 nM
Protocol: as §1

Hexafluoroglutaric acid = compound: O=C(O)C(F)(F)C(F)(F)C(F)(F)C(=O)O [Hexafluoroglutaric acid] (in DMSO)
Protocol: as §1

Perfluorohexanoic acid = compound: O=C(O)C(F)(F)C(F)(F)C(F)(F)C(F)(F)C(F)(F)F [Perfluorohexanoic acid] (in DMSO)
Protocol: as §1

[6] = compound: O=C(O)C(F)(F)C(F)(F)C(F)(F)OC(F)(C(F)(F)F)C(F)(F)F [Perfluoro-4-isopropoxybutanoic acid] (in DMSO); conditions: 2200 nM
Protocol: as §1

[7] = compound: O=C(O)C(F)(OC(F)(F)C(F)(F)C(F)(F)F)C(F)(F)F [Ammonium perfluoro-2-methyl-3-oxahexanoate] (in Water)
Protocol: as §1

[8] = compound: O=C(O)C(F)(OC(F)(F)C(F)(OC(F)(F)C(F)(OC(F)(F)C(F)(F)C(F)(F)F)C(F)(F)F)C(F)(F)F)C(F)(F)F [Perfluoro-(2,5,8-trimethyl-3,6,9-trioxadodecanoic)acid] (in DMSO); conditions: 370 nM
Protocol: as §1

[9] = compound: O=C(O)CCC(F)(F)C(F)(F)C(F)(F)F [3:3 Fluorotelomer carboxylic acid] (in DMSO); conditions: 2200 nM
Protocol: as §1

[10] = compound: O=S(=O)(O)C(F)(F)C(F)(F)C(F)(F)C(F)(F)F [Perfluorobutanesulfonic acid] (in DMSO)
Protocol: as §1

[11] = compound: OCC(F)(F)C(F)(F)C(F)(F)C(F)(F)C(F)(F)C(F)(F)CO [1H,1H,8H,8H-Perfluorooctane-1,8-diol] (in DMSO); conditions: 2200 nM
Protocol: as §1

[12] = compound: OCC(F)(F)C(F)(F)C(F)(F)C(F)(F)C(F)(F)C(F)(F)F [6:1 Fluorotelomer alcohol] (in DMSO); conditions: 2200 nM
Protocol: as §1

[13] = compound: OCC(F)(F)C(F)(F)C(F)(F)C(F)F [1H,1H,5H-Perfluoropentanol] (in DMSO); conditions: 2200 nM
Protocol: as §1

[14] = compound: OCC(F)(F)OC(F)(F)C(F)(F)OC(F)(F)CO [1H,1H,8H,8H-Perfluoro-3,6-dioxaoctane-1,8-diol] (in DMSO); conditions: 2200 nM
Protocol: as §1

[15] = compound: OCCCC(F)(F)C(F)(F)C(F)(F)C(F)(F)C(F)(F)C(F)(F)C(F)(F)C(F)(F)F [3-(Perfluorooctyl)propanol] (in DMSO); conditions: 2200 nM
Protocol: as §1

Row | Test System | level (log10) [1] | level (log10) [2] | level (log10) [3] | level (log10) [4] | level (log10) [5] | level (log10) (Hexafluoroglutaric acid; 2200 nM) | level (log10) (Hexafluoroglutaric acid; 6700 nM) | level (log10) (Hexafluoroglutaric acid; 20000 nM) | level (log10) (Hexafluoroglutaric acid; 60000 nM) | level (log10) (Perfluorohexanoic acid; 2200 nM) | level (log10) (Perfluorohexanoic acid; 6700 nM) | level (log10) (Perfluorohexanoic acid; 20000 nM) | level (log10) (Perfluorohexanoic acid; 60000 nM) | level (log10) [6] | level (log10) ([7]; 2200 nM) | level (log10) ([7]; 6700 nM) | level (log10) ([7]; 20000 nM) | level (log10) ([7]; 60000 nM) | level (log10) [8] | level (log10) [9] | level (log10) ([10]; 2200 nM) | level (log10) ([10]; 6700 nM) | level (log10) ([10]; 20000 nM) | level (log10) ([10]; 60000 nM) | level (log10) [11] | level (log10) [12] | level (log10) [13] | level (log10) [14] | level (log10) [15]
1 | HDF3CGF:PAI-I | -0.032 ± 0.041 | 0.0555 ± 0.026 | 0.0205 ± 0.005 | 0.012 ± 0.013 | -0.01 ± 0.037 | 0.001 ± 0.0057 | -0.0115 ± 0.016 | -0.007 ± 0.014 | 0.0075 ± 0.021 | -0.005 ± 0.09 | 0.0415 ± 0.044 | -0.0095 ± 0.021 | 0.025 ± 0.075 | 0.0255 ± 0.021 | -0.088 ± 0.016 | -0.0825 ± 0.052 | -0.0995 ± 0.013 | -0.051 ± 0.054 | 0.043 ± 0.057 | 0.01 ± 0.051 | 0.0075 ± 0.011 | -0.017 ± 0.034 | 0.007 ± 0.045 | -0.0075 ± 0.03 | 0.0065 ± 0.032 | -0.007 ± 0.024 | -0.044 ± 0.13 | 0.013 ± 0.057 | -0.0065 ± 0.076
2 | BT:sIL-17F | 0 ± 0.021 | -0.005 ± 0.16 | -0.0385 ± 0.025 | 0.054 ± 0.081 | -0.0265 ± 0.056 | 0.009 ± 0.068 | 0.046 ± 0.071 | 0.0335 ± 0.05 | -0.004 ± 0.0085 | -0.071 ± 0.14 | -0.081 ± 0.0014 | -0.002 ± 0.081 | -0.047 ± 0.031 | -0.133 ± 0.13 | 0.0405 ± 0.05 | 0.111 ± 0.016 | 0.116 ± 0.012 | 0.0455 ± 0.012 | -0.032 ± 0.2 | -0.045 ± 0.0028 | -0.0135 ± 0.0092 | 0.008 ± 0.0057 | 0.0145 ± 0.04 | -0.0225 ± 0.0064 | 0.002 ± 0.081 | -0.0185 ± 0.011 | 0.063 ± 0.17 | 0.007 ± 0.045 | 0.0365 ± 0.0078
3 | lMphg:CD40 | -0.006 ± 0.0042 | -0.0175 ± 0.015 | -0.0315 ± 0.013 | 0.0005 ± 0.0021 | -0.0205 ± 0.047 | -0.03 ± 0.037 | -0.0015 ± 0.012 | -0.013 ± 0.0014 | -0.066 ± 0.061 | 0.0105 ± 0.052 | 0.0105 ± 0.0078 | 0.016 ± 0.02 | -0.008 ± 0.0028 | -0.018 ± 0.0042 | -0.0135 ± 0.016 | -0.0295 ± 0.0064 | -0.045 ± 0.0099 | -0.049 ± 0.011 | 0.029 ± 0.05 | -0.076 ± 0.089 | -0.0115 ± 0.0064 | -0.0015 ± 0.0064 | -0.0065 ± 0.0021 | 0.009 ± 0.0014 | -0.003 ± 0.037 | 0.0235 ± 0.0064 | 0.007 ± 0.024 | -0.0395 ± 0.022 | -0.0165 ± 0.046
4 | BF4T:uPA | 0.022 ± 0.017 | 0.021 ± 0.021 | 0.0055 ± 0.035 | -0.013 ± 0.017 | 0.0045 ± 0.013 | 0.0085 ± 0.043 | -0.009 ± 0.016 | -0.0015 ± 0.015 | -0.003 ± 0.0028 | 0 ± 0.0071 | 0.01 ± 0.0028 | 0.004 | 0.0105 ± 0.0078 | 0.004 ± 0.02 | 0.013 ± 0.021 | -0.0025 ± 0.011 | -0.0005 ± 0.0078 | 0.0035 ± 0.022 | 0.0095 ± 0.013 | -0.003 ± 0.013 | -0.0225 ± 0.044 | -0.026 ± 0.02 | 0.006 ± 0.0014 | -0.014 ± 0.027 | -0.004 ± 0.0085 | -0.003 ± 0.0014 | 0.006 ± 0.013 | 0 ± 0.021 | -0.003 ± 0.018
5 | HDF3CGF:Collagen I | 0.01 ± 0.064 | 0.0285 ± 0.026 | 0.0515 ± 0.026 | -0.012 ± 0.0099 | 0.035 ± 0.092 | 0.009 ± 0.098 | -0.03 ± 0.014 | -0.0385 ± 0.0078 | 0.0105 ± 0.071 | 0.0395 ± 0.029 | -0.035 ± 0.033 | 0.02 ± 0.025 | -0.0035 ± 0.054 | 0.032 ± 0.042 | -0.024 ± 0.038 | -0.029 ± 0.031 | 0.0015 ± 0.005 | -0.0095 ± 0.0092 | 0.0155 ± 0.019 | 0.0095 ± 0.03 | -0.0035 ± 0.081 | 0.0175 ± 0.037 | -0.003 ± 0.025 | 0.0345 ± 0.043 | -0.017 ± 0.041 | 0.001 ± 0.0071 | 0.0375 ± 0.06 | 0.0135 ± 0.056 | 0.0545 ± 0.06
6 | KF3CT:CXCL8/IL-8 | -0.007 ± 0.0014 | -0.001 ± 0.0014 | 0.003 ± 0.038 | -0.007 ± 0.0042 | 0.0065 ± 0.012 | -0.012 ± 0.037 | -0.0115 ± 0.025 | -0.006 ± 0.0057 | -0.0135 ± 0.0021 | -0.0015 ± 0.042 | -0.005 ± 0.014 | 0.009 ± 0.04 | 0.031 ± 0.013 | 0.002 ± 0.024 | 0.003 ± 0.0099 | 0.0175 ± 0.036 | 0.0135 ± 0.00071 | 0.0165 ± 0.0092 | 0.0075 ± 0.026 | 0.0065 ± 0.00071 | 0.001 ± 0.0085 | -0.031 ± 0.02 | -0.002 ± 0.0042 | 0.004 ± 0.0071 | 0.0015 ± 0.028 | -0.003 ± 0.0042 | 0.026 ± 0.0085 | 0.0155 ± 0.00071 | 0.0035 ± 0.042
7 | CASM3C:CD142/Tissue Factor | -0.0115 ± 0.037 | 0.009 ± 0.11 | -0.006 ± 0.052 | -0.04 | -0.001 ± 0.021 | 0.0105 ± 0.036 | 0.003 ± 0.033 | 0.0015 ± 0.005 | 0.0185 ± 0.021 | -0.0045 ± 0.011 | -0.0125 ± 0.013 | -0.019 ± 0.0042 | -0.0145 ± 0.005 | -0.0015 ± 0.079 | 0.022 ± 0.033 | 0.022 ± 0.013 | -0.0045 ± 0.028 | -0.009 ± 0.089 | 0.021 ± 0.028 | -0.001 ± 0.0099 | 0.018 ± 0.028 | -0.0085 ± 0.0035 | -0.0115 ± 0.018 | 0.0135 ± 0.012 | -0.0195 ± 0.011 | 0.0005 ± 0.052 | 0.008 ± 0.041 | -0.02 ± 0.0042 | -0.002 ± 0.0085
